Measured values reported in publication PMC6882211.

Biological target: T1, pTAC10-HA (Arabidopsis thaliana) (UniProt F4JF21)
T1 sequence: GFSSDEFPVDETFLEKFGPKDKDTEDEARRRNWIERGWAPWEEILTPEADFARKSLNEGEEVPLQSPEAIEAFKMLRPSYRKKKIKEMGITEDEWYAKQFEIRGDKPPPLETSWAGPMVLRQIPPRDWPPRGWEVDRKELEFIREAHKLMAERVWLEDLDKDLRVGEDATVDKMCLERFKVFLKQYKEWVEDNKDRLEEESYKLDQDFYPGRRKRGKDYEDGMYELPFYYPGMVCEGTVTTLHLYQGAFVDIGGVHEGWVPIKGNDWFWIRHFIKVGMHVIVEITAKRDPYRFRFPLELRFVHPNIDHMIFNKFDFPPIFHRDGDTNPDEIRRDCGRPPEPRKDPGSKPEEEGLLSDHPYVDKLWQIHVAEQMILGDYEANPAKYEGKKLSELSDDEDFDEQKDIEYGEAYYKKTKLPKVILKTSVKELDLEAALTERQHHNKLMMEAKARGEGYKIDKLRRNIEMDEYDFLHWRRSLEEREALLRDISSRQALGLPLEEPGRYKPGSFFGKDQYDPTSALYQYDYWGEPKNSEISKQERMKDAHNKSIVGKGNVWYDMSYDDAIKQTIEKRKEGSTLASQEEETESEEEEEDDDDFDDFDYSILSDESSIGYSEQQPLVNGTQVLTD
Assay: co-IP; protoplasts from 35S::FSD3-GFP or 35S::FSD3S-GFP plants transformed with 35S::pTAC10-HA; HA antibody precipitates, GFP antibody detects; as in Chang et al. (2017) with slight modification

- binding: binds
Substance: FSD3S-GFP (Arabidopsis thaliana)

Results are given in words; binding and its absence hold for the method and conditions named. Binding seen in cells or lysates may run through a third protein. Binding can be weak; no strength is given. Sequences can lack the tags named with a protein.
